Experimental data as given in PubChem BioAssay AID493014 (National Center for Advancing Translational Sciences (NCATS), 2011).
This is one part of the list. The main result of the screen is listed elsewhere. These columns were measured beside it and carry no call. The list favours compounds with an active or inconclusive main result. Words in brackets tell the shape of the fitted curve; partial curves, single points and poor fits give uncertain potencies.

Assay: qHTS Assay to Find Inhibitors of Chronic Active B-Cell Receptor Signaling
Settings: ABC-DLBCL IkBa-CBG/CBR reporter, luminescence ratio (green luciferase fused to IkBa over red control in TMD8 lymphoma cells), 4 h; measured here: CBR red luminescence, cell number
How it was run: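 Concentration-response series (up to 46 uM) were applied to TMD8 dual-reporter cells for 4 h at 37C with doxycycline. Green/red ratio, after filter-overlap correction, defined %Activity; red signal alone was normalised to basal cells and zero luminescence.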

SMILES	AC50
COC(=O)Cn1c(C)c(C#N)c2ccccc21	25.9 µM [rising, single point]
Oc1ccc(Cl)cc1-c1cc(-c2ccccc2Cl)[nH]n1	20.6 µM [rising, partial curve]
COc1ccc(-c2cc(=O)oc3cc(OCC(=O)Nc4ccccn4)ccc23)cc1	2.82 µM [rising, full curve, poor fit]
O=C(CCN1CCCCC1)c1ccc2c(c1)OCCO2	8.91 µM [falling, partial curve, poor fit]
COC(=O)C1C(O)CCC2CN3CCc4c([nH]c5ccccc45)C3CC21 (stereo not drawn)	12.6 µM [falling, partial curve, poor fit]
COc1ccccc1NC(=O)C(=O)NNC(=O)COc1ccc2ccccc2c1	7.08 µM [falling, partial curve]
Nc1cccc(S(=O)(=O)c2ccc(N)c(N)c2)c1	22.4 µM [falling, single point]
O=C(/C=C/Nc1ccc(F)cc1F)c1ccco1	25.1 µM [falling, single point]
CCOC(=O)CNC(=O)CN1C(=O)CC(c2ccco2)Sc2ccccc21 (stereo not drawn)	1.12 µM [rising, full curve, poor fit]
COc1ccc(N2C(=NC(=O)C3CC3)SC3CS(=O)(=O)CC32)cc1Cl (stereo not drawn)	0.708 µM [falling, full curve, poor fit]
CCOC(=O)c1nc(C)[nH]c1C(=O)OCC	4.61 µM [rising, full curve, poor fit]
COc1ccc(NC2=Nc3cccc4cccc2c34)cc1	18.4 µM [falling, partial curve, poor fit]
CC(C(=O)NC1CCCC1)N(C(=O)c1ccc(-c2ccccc2)[nH]1)c1ccccc1F (stereo not drawn)	10 µM [falling, partial curve]
CCOCCn1c(SC)nc2c1c(=O)[nH]c(=O)n2C	20.6 µM [rising, partial curve]
CCOc1ccc2[nH]c3c(N4CCN(c5ccccn5)CC4)ncnc3c2c1	0.731 µM [falling, full curve, poor fit]
COC(=O)c1ccccc1NC(=O)CSc1nc(O)c(-c2ccccc2)c(=O)[nH]1	22.4 µM [falling, partial curve, poor fit]
c1ccc(-c2nnc(SCc3nc4ccccc4[nH]3)n2Cc2ccco2)nc1	0.708 µM [rising, full curve]
CC(=O)c1ccc(OCC(O)CN2C(C)(C)CC(O)CC2(C)C)cc1 (stereo not drawn)	6.51 µM [falling, single point]

A draw from above in order of count of non-hydrogen atoms, low to high:
SMILES	AC50
CCOC(=O)c1nc(C)[nH]c1C(=O)OCC	4.61 µM [rising, full curve, poor fit]
COC(=O)Cn1c(C)c(C#N)c2ccccc21	25.9 µM [rising, single point]
COc1ccc(N2C(=NC(=O)C3CC3)SC3CS(=O)(=O)CC32)cc1Cl (stereo not drawn)	0.708 µM [falling, full curve, poor fit]
